# No constants are given. Whether binding was seen depends on the method and setting. Binding seen in cells or lysates may run through a third protein. A yes stands for co-enrichment or nearness to the bait. Other partners may have been found.
# T1: Cdc3-mCherry (C. neoformans) (UniProt J9VUF2)
# T1 sequence: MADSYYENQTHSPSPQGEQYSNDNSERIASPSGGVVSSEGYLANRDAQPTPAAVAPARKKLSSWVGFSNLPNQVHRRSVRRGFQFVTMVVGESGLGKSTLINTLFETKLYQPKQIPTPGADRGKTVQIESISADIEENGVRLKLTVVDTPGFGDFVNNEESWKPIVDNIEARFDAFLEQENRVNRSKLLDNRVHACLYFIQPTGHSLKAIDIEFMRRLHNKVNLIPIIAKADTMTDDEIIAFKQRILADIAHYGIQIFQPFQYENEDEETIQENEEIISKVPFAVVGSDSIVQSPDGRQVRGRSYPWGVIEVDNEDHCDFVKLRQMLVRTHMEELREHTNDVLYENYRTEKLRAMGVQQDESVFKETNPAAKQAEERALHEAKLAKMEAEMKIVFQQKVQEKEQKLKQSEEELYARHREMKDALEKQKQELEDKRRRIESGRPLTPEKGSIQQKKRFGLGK
# Target: T1, Cdc3-mCherry (C. neoformans)
# Assay: affinity purification with mass spectrometry; mCherry-tagged septin captured from C. neoformans lysate on RFP-Trap agarose, 4 h at 4°C, washed with TBS with 2 M urea pH 7.5; GeLC-MS/MS; untagged H99 as negative control; hits logFC >2 and adjusted p <0.001 (text-named hits <0.05); exponential cultures at ~25°C or shifted to 37°C for 2 h; N = 5
row,binding,Binder
1,binds,"RNA-binding protein 39 (protein, UniProt J9VSU3 1-615) MSTTPPRSSYQSANGGDKTPELTTKREKRHREDDEEDDRDVSGRSHRYRREDDRDYDRDRSDRGDRDRDRERRNRHRRRDETEEERRERHRRREEETEEEREERHRRRRERELRERGREREREDDYRRGSREMSVGRPLSHRDRSRESHRSYRSHRDRDEMPPIRPMSREPRDMAEERRENDRRREMHFADLERDGRMRSPPPRRRRLSPEYGGPRGPPPRRPPPPPRDPATALIEEVDSEARSIFVSQLSARMTSQVLGLFFEDKLGRGAVRDARVVTDKVARRSKGIGYVELDSVDLVNKALALSGTVVMGIPINIMLTEAERNHSGTELITATALASNARSHGGGGRSSVPFTQNYPPLSTGLDLPPGLDPDAHKDAAIPYHRLFVSNLAFSLTADDVRQVFEPFGEIEFVDLHMDLSGLRKGTAYVQFKDVKSAQMALDAMAGFDLAGRLIKVQTIQERGTYQTPDLIEDSGNYGTRLDANQRQQLMFKLARTEPNVNLSLSAPRINDSQSKVPAMDPTPRIVVHNMFNPEEETERNWDLDLAEDVKGEVESKYGRVKRIKVEKMSAGEVYIEFIDTDSAIKAVKGLNGRFFGGRQLQAGYITEALFNAHL"
2,binds,"Rab family protein (protein, UniProt J9VVN1 1-203) MSRTTSFKLVLLGESAVGKSSLVLRFVRNEFSDFRESTIGAAFLTQSVNLDESTTIKFEIWDTAGQERYKSLAPIYFRNSNAAVIVYDITQPPETSFEKAKSWVRELHRQADPSIVIMLVGNKTDMESQRKTSREMGEQYAKEEGLLFAEASAKTGEGVEELFMEIAKKLPLAPPPPRGQVAGGKGVQVSGQEDSATLSACTC"
3,binds,"Beta-catenin-like protein 1 (protein, UniProt J9VPN3 1-643) MDIDKMFKLPSLPSGGNKRKMGDLPNPETLKKYKPSEPQAASEMIPPPPPGGLNGKGKGRAVTVEDDDVEAEYSRGEDVYDGEDDEEGRFFGGGLNKEQEQILDIFDAAGEGEQGPTLDLPALRRQIGKFQRIVMKNAEQRGKFPDDPSKFIDSESDLDTSLKAFLPLTQNPPLFYPELVKSGIIPIFANLLSHENTDIAIDVVEVIQELTDEDVGGEVDDLNGEEETGSETRMAMGQLIDELLNNSLLDLLVSNLSRLDESEDTDSQGVFHILGVFENLLSFMPPLADQIVEGTALLQWLLQRIKKKEYDSNKQYASEIMAILLQDSRANVLKLGQLDGMDVMLQVLSQYLKVDPGDSEEVEFMENVFDSVCSSLAQPEMKKAFLDAEGVELMVLMMKEKRLAKTRAIKVLDYALQTESGSPACERFVQALGLKTFFSAFMSSASSKAGGKKNKSKLGAAAATSAVEDEEHMLGILASLFTNLASDSPERIRVIAKFVEGGYEKVERLLEVRDAAEGRLGSVIKEIEYERKVMQANEEEITDVEETEWYLRKMDAGLASLQNADYVLAWVCMEDDGAMTHARLLLSRKNMNFKTIAAVLTEFKNNVGDNDEPDEEDGQRQADDAANTQKMILEHLIAFLEGL"
4,binds,"Phosphotransferase (protein, UniProt J9VWU8 1-557) MSETPDQLASRVQKLSTATTTTQRTGSGSAVLENGTNTGSTAGRKASIPAQVDPERIISSSGSGRASRRGSGLVMTPGGVQTVYHTRTNDDIEFPHAEKKTMSDLLRKYESLFTLTPQRMRMIVHAIEETLDNGLQKNGQVVPMIPTYVFGWPTGDEVGDFLALDLGGTNLRVCLVTLLGRGKFEVTQTKYRLTEEQKQGEGQDLLDFCAECLNSFIRDTLGRTENDGILPLGFTFSYPCSQDRIDHGVLIRWTKGFGAPNIEGYDVAAMFKDSLKRFNVPAELTALINDTTGTLIASNYVDPHTKIAVIFGTGCNAAYMETAGSIPKIDYVGLPKEQGMAINCEWGAFDSFNHQHLPRTKYDIIIDESSNKPGEQSFEKMIAGLYLGEIFRLVLCELIDSGDLFLGQNTYKLEKAYAFDTAFLSLMEADVTEELLTVIGVFTHFFGLETTLEERQFFKKLAVLVGTRSARLSACGIAAIVSKKGYLEEGCAVGADGSLYNKYPNFADRVHEALTDIFGESGKKIVTHHAEDGSGVGSAIIAAMTKARKDSGFFVEY"
5,binds,"Ubiquitin-conjugating enzyme E2 (protein, UniProt J9VS15 1-151) MAKVPRSFRLLSELEHGEKGIGDGSCSYGLKDSDDIAMYEWNGTILGPPHSAFENRIFSLSIYCGDNYPDVPPLVKFESRISLPCVNQQGLVDFSRISSISRWNRNFTLETVLVELRRDMASPANRKSSQPPEGVDFPPLDLRALAQQRGL"
6,binds,"F-type H-transporting ATPase subunit G (protein, UniProt J9VQH4 1-156) MRPQLFRPVRTLGRRLNSSSASPQTNPNVQKAVENAQKAYAQTAATLKKAAGPVGEKIGGALGGYREPVIYNSKVFASICRQVWQAEKLSPPLELATWARAYSEIYSKAVNGGYWKNVLKTGAWAGLGVAALEAYGIFKIGEIVGRRNLIGYSLKE"
7,binds,"Tip120-family protein (protein, UniProt J9VQT6 1-1266) MSRTTTVPLNSQLPGLLEKMRSIDPDYRIMALVDLNKELNRTLAPQPSLTRRPDPHYTDDYTESQLVEMVLKLLADTNGEVKSAAVSCISLMVKKPRPSSLSKIINSLLEDVSSDNDERRDTSCLALKNVVLEMPSESQQVLSDIERIVTRVFKLFTNEIHPQIASELLQILTDLFVRFSPNVASSATIQSTALSSLIQILNNARPAIRKRAVPTLSSLIATSPKLFNEDLEKEIVNGVSQSGESSRIWMGTVASLARGKSAGSIGKLVNEGRLAELILNQTKNDDVETVEAALTALEALVLKCPSEMFPHISSITQRSLVLVKYDPNYVDLEDDDDDDVDMASDAEDDEEDEYGDADYSDEDDDSWKIRRSSAKLLRALIFTRPDLLSELYNSVTPVLISRFAEREESVRLEVLAAFEMLLRQTATSRSTDLATGGRNKRKRSEGMDEDYVSDDGPISSLQSYLPQLSKAILTQLSSKSVPTRQQSFNLLRQAATALGGGLDDSADPICTAAASALRTIDSATSSSLAIATLSFLAVFFDTHSARTFASHLGELVPAIVRCMKDKLQRISFEAFDTASSLTKSLRPAGSSASVSGDFSIPIQEVFLATTQVLGDNSVDGDVREKALATLGSVLVQSGDLFASSFSTSLPLITNRLGSESTASTAIVVIGQLAASPQCKGPEFEGWLLQILPEVVVALRRTKRGTSKNVEFTCLLSIIERVGKALPVDLAEGLIIELTPVIDTPMALQTIAIVLTHQPSARPTVDAQLYPKILTILKTSLNPHLVDALAEFFTAYAASLNSPERAVQLVQELSNNLGSGKRDSLPDATNGGTAAWGTTAKCVGGVIKGEIASAGESLALFEDVVKGKNVKETDAYLALLCIGEIGRIVNLSTKIDLFEIILSFFKHDSEEVRSAAAFAAGNLAVGAPAVYVPAIITRISAAKDESERLLLLHAIKEVILHSPSAQLESLADTLWAPLFSATDATPASKADSTGGDGIRNVIAACIGKLTTTVPAKFLPQLQQLLYSSPSNRAIVAAAVRYTFIDTSNGYDELIAPIIVEFLSLMKDENLIVRRLSLASLNAALQNKPHLIVDKLDILQPLLYQETYVKKELQREVTMGPWKVIEDDGLENRKTAYETMYTLLGACFSKIDLLTFTARVLVSLSDVNEVKVLGLMLLLRLGQVSPESVIPRLDEVVESLKGMMKDVEVKDDTIKQDLERKAEMQRSTLRTVVPLYKSSTPQQAPAFHAFVENLLANEKWKEFREYQA"
8,binds,"Oxidoreductase (CNAG_04955) (protein, UniProt J9VL98 1-379) MSMLLRARHVPPPLTRTMPLPYTVASTVPLPPAAVSKLQGAFASFIHRTDSSSPFTKDELSKIQVFFTTGRGPPVDSLAHVPNLELVQLCSAGADKAIASPAMKAYVDGRKAGDGKGDSKEVRLATASGTHVLSIPNYAVAMVITLLHQLPRQIVGARTEQRWLSEEECDMDGQAYYARKTFHRTAGLLGYGSLGRETARLLKAHGMRIIAANTSGKATPQDGYVIPGTGDKDGSIPEAFYSTKDPKSVKEFLNQCDVLVASLPNTPATQHFLNKEKLEMLPKGAVLVNVGRGSLIPSDDLIAVLNTPHLFGAALDVTDPEPLPAQHPLWSHPKCIITPHLSGNTEGEMEIAADVLMFNVQRMNDGKGVVNEVKWERGY"
9,binds,"Protein transport protein SEC23 (protein, UniProt J9VY38 1-763) MNFEDIEDKDGVRFSWNVWPSSRLEATRTVVPISALYTPLKEREDLPPVMYEPVTCKGSSCKAILNPYCQVDVRGKMWICPFCLQRNPFPPHYHQDLSPNNLPPELLPKFTTIEYTLSRPAQIPPIFLYIVDTCVDEDELKALKETLVVSLSLLPPNALVGLVTYGTMAMVHELAYADCPKAYVFRGSKDYQPKQIADMLGLNPSNRPIQPVRPGQPMPAPAASKFLMPVQACEFQLTNILEQLQRDPWPVDQDKRPLRCTGVALSVAVSLLETAFPNTGARIMLFSGGPATDGPGMVVGPELREPIRSHHDIDRDSVKHFKRASKFYEALSKRASVNGHAIDIYAGCLDQVGLLEMKSLTNATNGFMTISDSFMTAIFKQSFLRTLGKDEQGYLKMGFNATYDVLTTKELKISGVIGHVISANKKSSCVGETEIGIGQTSAWKVCSLTPKSTLATYFEVVTPAGQALAPNQSGLIQFVTHYQHSSGQYRLRVTTVSRVFQEGGHPSIAASFDQEAAAVLMARIAVFKAEIDDSPDVLRWLDRMLIRLCQKFADYRKEDPTSFQLSPNFSIYPQFMFHLRRSQFLQVFNNSPDETAFYRHVLNDSDVNNSLIMIQPTLMSYGFDSEPHPVLLDSVSIRPDVILLLDTFFHILIFHGETIAQWRKANYQEQEDYANFKELLEAPIGDAQELLEDRMPIPRYVVCDQGGSQARFLLSKLNPSTTHMSGSNYGAGPAGGQAIFTDDVSLQVFMEHLKRLAVGASTS"

# Source: publication PMC11651612
